# Measurements as given in PubChem BioAssay AID1508600 (Functional Genomics Laboratory (NCATS/FGL), 2020).
# In all, about 53,000 sequences went through this assay and about 3,700 (7%) were called active.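 The calls were made as follows: active = gene knockdowns whose robust z-score for IL-1 alpha signal is at least 2 or at most -2, so actives lie on both sides; inactive = the rest.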 The list shows a part of the results.
# Test: Components of the Cytosolic LPS Sensing Pathway: Gene Identification via Genome-wide siRNA Screen;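 also: robust z of the log signal after scaling to non-targeting control siRNA wells of the plate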
# Conditions: RAW264.7 macrophages, IL-1a HTRF, actives lie on both sides, screened at 100 nM (by protocol), cells primed 5 h with Pam3CSK4 first
# Outline: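 IL-1a HTRF of supernatants after 24 hour LipidA transfection of Pam3CSK4-primed (5 hours) RAW264.7 cells, 48h post-siRNA transfection (100 nM). Scores: percent of plate negative-control median, then log-based robust z-score.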
row,Sequence,z-score
1,GACAAAACAAUUUCCUAUGTT against Olfr805,inactive: -0.318
2,GGCGACUCUGUCACAAUUUTT against C1rl,inactive: 0.578
3,GGUGGUUUUAAAGUGCUGGTT against Tmprss11b,inactive: -1.08
4,CCACGCCAUCUUACUGACUTT against Adamts16,inactive: -0.336
5,GGUGUUGAAAUAAUUUCUCTT against Phospho2,inactive: -0.285
6,GGACUUGUCCGCUCAUUGGTT against Usp54,inactive: -1.13
7,CCUGUCAUCUAUGCUAUGATT against Npnt,inactive: 0.0124
8,GGCAGCAUUGAGUGUGUGATT against Asb13,active: 2.53
9,GGAUUCUGUGAUUUGUCUATT against Prss39,inactive: -0.331
10,GCAUUAUGCAAAUGAGGAUTT against Phtf2,inactive: -0.52
11,GGCAGGAAUCUAUAUUAAUTT against Slc17a3,inactive: 0.48
12,GCGCAAUAUAGAGUCAUCATT against Rnls,active: -2.83
13,GGCUGAAUUUGAUAAAACCTT against Oxr1,inactive: -0.77
14,GGAGACAUCAACAAGUUGATT against Fam167a,inactive: -0.772
15,GGAAAAAGCUCAAAGGCGATT against Gap43,inactive: -0.216
16,GGAAAAGAAGCUACGCUUGTT against Rrp9,inactive: -0.0692
17,CCAUACCAUUAGUGUCGGCTT against Acot11,inactive: -1.89
18,GGAUGUUCAACCUAAACGATT against Ferd3l,inactive: -0.347
19,CCUCCGAAUUGCCCUUCUGTT against Gtf2h4,inactive: 0.0232
20,CCUGACAGCACUUUGUGGATT against Arhgef4,inactive: 0.481
21,CCAAACGAUUUAUAAUCAGTT against Ints4,inactive: 1.49
22,CCCGUCUCCUAAUUUUAACTT against Fgf17,inactive: -0.762

row,Sequence,z-score
1,UGGUUCUACAGCAUUUGUGTT against Olfr954,inactive: -0.67
2,GGCUACAAUAGCUGUGGUATT against Magea4,inactive: -0.237
3,GGAUCAAGUGGCUGAUUUGTT against Ube2t,inactive: -0.457
4,GGUUAGGGUGCGUGUUACUTT against 2310033P09Rik,inactive: 0.358
5,GGUUUUAAUGGUACGAUUUTT against Nr1d2,inactive: 0.36
6,GGGAAGAGAAACACAGAUGTT against Ooep,inactive: 0.0686
7,GGAACUGAAUCCAGAAAUGTT against Ldhb,inactive: -0.609
8,GGUUUCUCGACCUACAUUUTT against Lsm14b,inactive: -1.32
9,GGUUACUUGAGUGAAUAAUTT against Asb12,inactive: 1.11
10,GGAAAGGCUCAAUGAGAGCTT against Nipa2,active: -3.3
11,CGCACAGUGGACAUUUGAGTT against Nsl1,inactive: -1.07
12,GCUGAUCUAACCAACAGCATT against Mark2,inactive: -1.32
13,GCCAUAGAAAGGAUUCAUATT against Epb41l4a,inactive: -0.131
14,UGCAAUCCGGAUCAAACGUTT against Cebpb,active: -2.03
15,GGUGUCUGACUUUAAGAAGTT against Foxred1,inactive: -0.247
16,GGAAUGAAGUUCACAAUAATT against Ide,inactive: 0.173
17,CGGUUAAAAGCACUGCUCGTT against Tmc1,inactive: 1.68
18,GUUCAAGCAGAGGCAGACUTT against Pde6h,inactive: -2
19,AGAAACUGUUGGGUGAAAATT against Olfr329,inactive: -0.11
20,GGUUGUGUUUUGAUAGGAATT against Slfn5,inactive: -0.353
21,GCAUGUAUAACAGACCCAUTT against Tex47,inactive: 0.928
22,GGAGAGCAUCCUGAAGACGTT against Arl13b,inactive: -0.363

row,Sequence,z-score
1,GCUACUUGCUCAUACAAAGTT against Rag2,inactive: 0.65
2,GCUUCUGGUUUUCGGCUAUTT against Sfswap,inactive: 0.427
3,GCAAGCAAUAGAGGAACCUTT against Rnf38,inactive: 0.0643
4,GGAUCAACAGAGGUUGGCATT against Aldh1a7,active: -2.03
5,GGAUUUUUUUUCCAGAAGCTT against Apln,inactive: 0.9
6,CCUGUUUUCCGACUUGUUGTT against Il4ra,inactive: 0.809
7,GCUAACAGUGGGUUAUUUATT against Tgfb2,inactive: 0.123
8,CGUGUACCAGCUACCUAAGTT against Phc2,inactive: -1.31
9,GCCUCUUGCCUGAUUACCUTT against Scgb1b2,inactive: 1.53
10,AAGAGCAUUAGUGCACAGATT against Gm5334,inactive: 0.267
11,GCUGAACGACAAUAAGGGCTT against Ltbp1,inactive: 0.467
12,CCCGAAACAUCAUCAAGUATT against Olfml2b,inactive: 1.61
13,CGUACAAGACCAACAGAAGTT against Prag1,inactive: -0.825
14,GGGAGAAAAUCAAAGUAAUTT against Trim13,inactive: -0.464
15,GGGAUUUUAAGAGUUGACUTT against Cyp3a41a,inactive: -1.41
16,GCAACAAUAAAUCGUACAGTT against Nupr1,inactive: 0.246
17,CCUACCCGAUUAUUCUUACTT against C2cd2l,inactive: 0.125
18,GGCUAUGCAAGUGGAGAGCTT against Nfat5,inactive: -0.311
19,GCCUAUGACUACCUCGAGUTT against Rhob,active: -2.01
20,GCUCAUCUAAGAGGAAUGATT against Jtb,inactive: -1.81
21,GGAGAGGAACUCAGAACCATT against Lrmp,inactive: -0.576
22,GGAUUUUCUAAAAAGACACTT against Slc23a1,inactive: 0.623

row,Sequence,z-score
1,GGUUAUGUGGAUGAAAGAUTT against Mybpc2,inactive: -0.89
2,GGAUGGUAUAUGAUGAGAUTT against Slc7a15,inactive: -1.57
3,CCCUGGAAAUUAGAUAACATT against Aldob,inactive: 0.74
4,GCACGUUAGUAAGUAGUUATT against Ubtd2,inactive: 1.04
5,GCAUCUCAGCUCUGAUUUATT against Fgfbp3,inactive: 0.758
6,GGACCUGACCAAUUGAGCUTT against Rusc1,inactive: -0.799
7,GGUGCAAGCUUUGAGAGGATT against Hsf4,inactive: 0.853
8,GACCUUCGUUAGCAUUACGTT against Pfn1,inactive: 0.65
9,CCCUGAAUGUUCGAGGAGATT against Ghdc,inactive: 0.00147
10,CGUGUUGUACUACGUAUAUTT against Abtb1,inactive: -0.172
11,GCCACUUUUACCCUCAAGCTT against Zgrf1,inactive: -0.628
12,CGUAGAGCUCAGAGAAUUCTT against Dhx58,inactive: 0.614
13,CGGAGUAGCGAUUAUGGUGTT against Art5,inactive: -0.535
14,CGGGAUAGACAUGAGAGCUTT against Cemip2,inactive: -0.37
15,GGUGCUUUUGCUUAGUGAUTT against Impg2,inactive: 0.433
16,GGUCUAUGUACUGUCCUGATT against Otop2,inactive: 0.0413
17,GGAGCCCUGUGUCUUGAGUTT against Ccl19,inactive: -0.39
18,GGAAGACCUUGAAUUCCAGTT against Tspan31,active: 2.87
19,GGAUAAGAAGAAAUGUCUGTT against Septin6,inactive: -0.69
20,CGUUAGUGACAUGCUCAUGTT against Olfr517,inactive: -0.484
21,GGAGAUGAGAAGAUGGGCGTT against Ppp1r8,inactive: 0.0692
22,CCCACAAGGUUAAGAUAUATT against Col14a1,inactive: 0.604

# Another view of part of the listing above.
row | Sequence | z-score
4 | CCACGCCAUCUUACUGACUTT against Adamts16 | inactive: -0.336
9 | GGAUUCUGUGAUUUGUCUATT against Prss39 | inactive: -0.331
12 | GCGCAAUAUAGAGUCAUCATT against Rnls | active: -2.83
13 | GGCUGAAUUUGAUAAAACCTT against Oxr1 | inactive: -0.77
20 | CCUGACAGCACUUUGUGGATT against Arhgef4 | inactive: 0.481
22 | CCCGUCUCCUAAUUUUAACTT against Fgf17 | inactive: -0.762
1 | UGGUUCUACAGCAUUUGUGTT against Olfr954 | inactive: -0.67
8 | GGUUUCUCGACCUACAUUUTT against Lsm14b | inactive: -1.32
10 | GGAAAGGCUCAAUGAGAGCTT against Nipa2 | active: -3.3
13 | GCCAUAGAAAGGAUUCAUATT against Epb41l4a | inactive: -0.131
14 | UGCAAUCCGGAUCAAACGUTT against Cebpb | active: -2.03
15 | GGUGUCUGACUUUAAGAAGTT against Foxred1 | inactive: -0.247
20 | GGUUGUGUUUUGAUAGGAATT against Slfn5 | inactive: -0.353
2 | GCUUCUGGUUUUCGGCUAUTT against Sfswap | inactive: 0.427
8 | CGUGUACCAGCUACCUAAGTT against Phc2 | inactive: -1.31
14 | GGGAGAAAAUCAAAGUAAUTT against Trim13 | inactive: -0.464
18 | GGCUAUGCAAGUGGAGAGCTT against Nfat5 | inactive: -0.311
1 | GGUUAUGUGGAUGAAAGAUTT against Mybpc2 | inactive: -0.89
3 | CCCUGGAAAUUAGAUAACATT against Aldob | inactive: 0.74
10 | CGUGUUGUACUACGUAUAUTT against Abtb1 | inactive: -0.172
14 | CGGGAUAGACAUGAGAGCUTT against Cemip2 | inactive: -0.37

# The list continues:

row,Sequence,z-score
1,GGGAACUGACAAAUGGAAGTT against Samsn1,inactive: -0.0777
2,GGAAGCGUAGUAAAAAGAGTT against Ermp1,inactive: -0.702
3,GCGAUUUGACAACGAGACCTT against Bmp7,inactive: 0.899
4,GGGCUAGAUAUUCCAUGCATT against Olfr585,inactive: -1.82
5,GAUCAAUGUGAAGGACAUCTT against Cyp2c50,inactive: 1.05
6,GGAAUUGGCAUGAACGAACTT against Psmd9,inactive: 1.23
7,GGCCUGUUUUUAAAAAGGATT against Tspan7,inactive: 0.3
8,GGAACACCCGGAUUACAAGTT against Sox1,inactive: 1.81
9,GGAGAUCAACAGGAUUUUGTT against Gna15,inactive: -1.35
10,GGAUGCUCUGAAGAGACAUTT against Olfr493,inactive: -0.0892
11,CCCUAGACUUGAGAGUUUUTT against Eif2s1,inactive: 1.29
12,GGUUUCCUUUGUCUGUUUUTT against 9530091C08Rik,inactive: -0.509
13,CCUAAUAGUACCAACAAAATT against Nxf2,inactive: 0.217
14,CGGAAUCAUACAUUGGUUCTT against Zfp217,inactive: 1.22
15,CCUACGCCAAGCAGUAUGATT against Mcm3,inactive: 0.286
16,GGUCUUCUUCGUGUUCAUCTT against Olfr281,inactive: -0.0815
17,CCCGAUGAGAGACAUUUUATT against Rrm2,inactive: -0.547
18,GGUUGAGGACAUAAGACCCTT against Vwa1,inactive: -1.63
19,GCUACAUUUCAUCAGCAAATT against Gzf1,inactive: 0.168
